Experimental findings from paper PMC3921104 are described below.

Protein sequences, listed by entry. Tags and fused reporters are not part of them. Lines headed by an entry give the natural chain unless they say otherwise; changes in a name come on top. Chains listed by the source or under a name are the forms on record and can include a tag or linker.
UniProt P23696: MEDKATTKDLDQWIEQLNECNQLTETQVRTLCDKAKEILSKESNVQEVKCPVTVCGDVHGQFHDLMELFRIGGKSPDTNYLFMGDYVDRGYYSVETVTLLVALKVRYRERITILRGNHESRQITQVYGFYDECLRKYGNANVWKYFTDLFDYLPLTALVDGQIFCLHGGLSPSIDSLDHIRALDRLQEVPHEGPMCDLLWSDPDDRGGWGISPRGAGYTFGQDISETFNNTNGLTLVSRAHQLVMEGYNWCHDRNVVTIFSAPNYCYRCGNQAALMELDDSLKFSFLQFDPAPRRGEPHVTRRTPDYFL
Orb2A, untagged, expressed in S2 cells (Q9VSR3-2, form named): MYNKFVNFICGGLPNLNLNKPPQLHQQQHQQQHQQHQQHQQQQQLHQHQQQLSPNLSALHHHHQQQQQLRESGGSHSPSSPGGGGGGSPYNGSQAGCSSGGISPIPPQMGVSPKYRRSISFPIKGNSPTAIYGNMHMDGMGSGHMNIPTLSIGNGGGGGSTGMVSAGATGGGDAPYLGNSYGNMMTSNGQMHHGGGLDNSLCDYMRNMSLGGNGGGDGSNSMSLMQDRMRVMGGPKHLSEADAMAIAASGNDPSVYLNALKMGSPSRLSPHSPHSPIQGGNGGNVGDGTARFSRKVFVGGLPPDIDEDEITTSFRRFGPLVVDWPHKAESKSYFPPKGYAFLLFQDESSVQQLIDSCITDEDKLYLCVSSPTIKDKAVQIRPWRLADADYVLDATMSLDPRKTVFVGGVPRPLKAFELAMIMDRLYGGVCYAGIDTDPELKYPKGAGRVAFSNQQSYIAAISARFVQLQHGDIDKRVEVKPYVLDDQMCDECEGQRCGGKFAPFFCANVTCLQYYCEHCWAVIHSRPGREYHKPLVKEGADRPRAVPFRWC

The target in assay [1] is HA-tagged Mts, the catalytic subunit of PP2A (Drosophila melanogaster) (UniProt P23696). The experiment in a line: co-IP; Orb2 proteins coexpressed with HA-tagged Mts; complex immunopurified with anti-HA antibodies.
The target of assay [2] is T1, FLAG-tagged flotilin (Flo2), S2 cells (Drosophila melanogaster) (UniProt O61492).
T1 sequence: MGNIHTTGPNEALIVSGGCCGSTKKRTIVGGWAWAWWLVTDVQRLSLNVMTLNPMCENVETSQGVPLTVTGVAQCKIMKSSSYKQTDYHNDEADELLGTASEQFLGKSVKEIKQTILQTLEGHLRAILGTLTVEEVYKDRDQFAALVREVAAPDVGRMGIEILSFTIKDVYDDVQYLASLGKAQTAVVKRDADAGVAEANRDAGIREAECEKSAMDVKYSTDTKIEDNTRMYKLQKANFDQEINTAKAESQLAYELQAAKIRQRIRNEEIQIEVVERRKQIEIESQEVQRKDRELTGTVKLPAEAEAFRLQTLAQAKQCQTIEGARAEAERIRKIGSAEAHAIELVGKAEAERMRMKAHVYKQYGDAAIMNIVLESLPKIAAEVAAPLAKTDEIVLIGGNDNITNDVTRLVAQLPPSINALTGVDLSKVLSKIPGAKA
As to the kind of experiment: co-IP; S2 cells; FLAG-tagged candidate proteins coexpressed with untagged Orb2, immunoprecipitated with anti-FLAG antibodies, Western blotted with anti-Orb2 antibody. For orientation: In western blotting, separated proteins are transferred to a membrane and probed.

In assay [3] the target is T2, flag-tagged mouse Tob1 (mouse) (UniProt Q61471).
T2 sequence: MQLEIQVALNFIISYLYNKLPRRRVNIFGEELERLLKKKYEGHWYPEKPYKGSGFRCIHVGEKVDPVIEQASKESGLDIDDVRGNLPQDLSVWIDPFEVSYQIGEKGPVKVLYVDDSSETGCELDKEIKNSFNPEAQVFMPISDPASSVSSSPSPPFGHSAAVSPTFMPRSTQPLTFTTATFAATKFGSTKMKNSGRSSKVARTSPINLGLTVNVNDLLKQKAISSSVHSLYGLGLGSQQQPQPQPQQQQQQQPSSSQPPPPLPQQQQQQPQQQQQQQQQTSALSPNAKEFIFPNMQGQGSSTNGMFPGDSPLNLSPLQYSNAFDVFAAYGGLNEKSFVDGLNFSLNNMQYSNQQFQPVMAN
As to the kind of experiment: co-IP; HEK293T cell extracts transfected with HA-tagged CPEB3 or ApCPEB together with flag-tagged mTob1 or mTob2.

For assay [4], the target named is T3, flag-tagged mouse Tob2 (mouse) (UniProt Q9JM55).
T3 sequence: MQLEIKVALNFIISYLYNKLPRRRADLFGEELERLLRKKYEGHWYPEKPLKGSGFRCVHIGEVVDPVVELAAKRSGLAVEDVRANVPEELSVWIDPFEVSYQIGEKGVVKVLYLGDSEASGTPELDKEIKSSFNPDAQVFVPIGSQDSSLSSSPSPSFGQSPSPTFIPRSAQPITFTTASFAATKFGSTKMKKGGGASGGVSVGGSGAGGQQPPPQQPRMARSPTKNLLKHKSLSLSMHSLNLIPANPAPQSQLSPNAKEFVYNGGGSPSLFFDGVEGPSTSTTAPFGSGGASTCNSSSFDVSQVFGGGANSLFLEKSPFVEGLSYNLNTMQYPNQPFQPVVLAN
Described as above.

No constants are given. Whether binding was seen depends on the method and setting. In cells and extracts the contact can be indirect. Some entries that bind do so weakly or less than the wild type. For some assays here: Tags and fused reporters may be left off the sequences shown.

With “Orb2A expressed in S2 cells (tag not told) (from UniProt Q9VSR3-2 1-551)”, in assay [1], the binding entry is listed as “binds”.

In the case of “Orb2A, untagged, expressed in S2 cells (from UniProt Q9VSR3-2 1-551)”, the binding entry in assay [2] is on record as “binds”.

Turning to “Orb2B expressed in S2 cells (tag not told) (from UniProt Q9VSR3-1 1-704)”, the binding result in assay [1] is given as “binds”.

B1: HA-tagged mouse CPEB3 (protein, UniProt Q7TN99 1-716)
chain: MQDDLLMDKSKTQPQSQQQQRQQQQQQQQLQPEPGAAEAPSTPLSSEIPKPEDSSAVPALSPASAPPAPNGPDKMQMESPLLPGLSFHQPPQQPPPPQEPTAPGASLSPSFGSTWSTGTTNAVEDSFFQGITPVNGTMLFQNFPHHVNPVFGGTFSPQIGLAQTQHHQQPPPPAPQPPQPAQPPQAQPSQQRRSPASPSQAPYAQRSAAAYGHQPIMTSKPSSSSAVAAAAAAAAASSASSSWNTHQSVNAAWSAPSNPWGGLQAGRDPRRAVGVGVGVGVGVPSPLNPISPLKKPFSSNVIAPPKFPRAAPLTSKSWMEDNAFRTDNGNNLLPFQDRSRPYDTFNLHSLENSLMDMIRTDHEPLKGKHYPNSGPPMSFADIMWRNHFAGRMGINFHHPGTDNIMALNTRSYGRRRGRSSLFPFEDAFLDDSHGDQALSSGLSSPTRCQNGERVERYSRKVFVGGLPPDIDEDEITASFRRFGPLVVDWPHKAESKSYFPPKGYAFLLFQEESSVQALIDACLEEDGKLYLCVSSPTIKDKPVQIRPWNLSDSDFVMDGSQPLDPRKTIFVGGVPRPLRAVELAMIMDRLYGGVCYAGIDTDPELKYPKGAGRVAFSNQQSYIAAISARFVQLQHNDIDKRVEVKPYVLDDQMCDECQGTRCGGKFAPFFCANVTCLQYYCEYCWASIHSRAGREFHKPLVKEGGDRPRHVPFRWS
Take B1: the binding result in assay [3] and in assay [4] was “binds” in each case.
